The test system of assay [1] is MIWI (PIWIL1) piRISC loaded with L1MC piRNA (30 nt). Put plainly: pre-steady-state target cleavage rate (min^-1); MIWI and MILI are mouse PIWI proteins and EfPiwi is from a freshwater sponge; tags in brackets are library labels; higher = faster piRNA-guided slicing of the target. The following applies: guide: L1MC piRNA 5'p-UAACUAAAUACUAUGCAAGCUGUAGGUCCU
Put shortly:
(§1)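 With or without 500 nM GTSF1 partner protein, 1 nM active affinity-purified piRISC carrying one synthetic guide was mixed with 0.1 nM transcribed, DNA-blocked target RNA library in HEPES–potassium acetate buffer at 33 °C for 0–8 or 0–960 min. Uncleaved targets were sequenced and normalised to depth and to weakly complementary targets, three trials were pooled, and k3 was capped at 0.0001 min^-1. The pre-steady-state cleavage rate came from a burst-and-steady-state fit.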

Assay [2] deals with MIWI (PIWIL1) piRISC loaded with piRNA #1 (30 nt). Described as above. The note with it: guide: piRNA #1 5'p-UGAGGUAGUAGGUUGUAUAGUAUCCAGAGG; auxiliary factor: 500 nM mouse GTSF1. Put shortly:
as §1

[3] abbreviates: auxiliary factor: 500 nM mouse GTSF1.
Where [4] appears, read: auxiliary factor: none (no GTSF1).

± gives the standard deviation. This is a selection; strong and weak results do not stand in their true shares. Many entries were measured with a wide error.

Turning to UGGACCUACAUCUUGCAUAGUAUUUAGUUA, the “pre-steady-state target cleavage rate” value in assay [1] (setting [3]) is 1.38 ± 0.043; in assay [1] (setting [4]), 0.0737 ± 0.012.

For the sequence UCGACGUACAGCUUGGAUAGUAUUUAGUUA, the results for the “pre-steady-state target cleavage rate” value in assay [1] (setting [3]) and in assay [1] (setting [4]) were 1.24 ± 0.042 and 0.0503 ± 0.0083, respectively.

For UCGACCUACAGCUUGCUAUAGUAUUUAGUUA, the “pre-steady-state target cleavage rate” value in assay [1] (setting [3]) was 0.0661 ± 0.018; in assay [1] (setting [4]), 0.0011 ± 0.0071.

With UGGACCUACAGCUUAGCAUAGUAUUUAGUUA, the “pre-steady-state target cleavage rate” value in assay [1] (setting [3]) was 1.45 ± 0.08; in assay [1] (setting [4]), 0.0281 ± 0.0051.

As for UGGACCUACAGCUUCAUAGUAUUUAGUUA, the “pre-steady-state target cleavage rate” value in assay [1] (setting [3]) stood at 1.36 ± 0.077; in assay [1] (setting [4]) it was 0.0221 ± 0.0047.

Turning to AGGACCUAGAGCUUGCAUAGUAUUUUCAAA, the “pre-steady-state target cleavage rate” value was 0.0396 ± 0.013 in assay [1] (setting [3]) and 0.00187 ± 0.0051 in assay [1] (setting [4]).

AGGAACUACAGCUUGCAUAGUAUUUAGUUA: the “pre-steady-state target cleavage rate” value in assay [1] (setting [3]) was determined as 1.3 ± 0.041; in assay [1] (setting [4]), 0.0918 ± 0.016.

Turning to UGGACCUAGAGCUUGCUUAGUAUUUAGUUA, the figures for the “pre-steady-state target cleavage rate” value in assay [1] (setting [3]) and in assay [1] (setting [4]) were 1.18 ± 0.095 and 0.0321 ± 0.0069, respectively.

Regarding AGGACGAUCAGCUUGCAUAGUAUUUAGUAA, the figures for the “pre-steady-state target cleavage rate” value in assay [1] (setting [3]) and in assay [1] (setting [4]) were 1.02 ± 0.12 and 0.0692 ± 0.015, respectively.

UCCUGGUACAGCUUGCAUAGUUUUUAGUAA: the “pre-steady-state target cleavage rate” value in assay [1] (setting [3]) turned out to be 0.177 ± 0.037; in assay [1] (setting [4]), 0.0195 ± 0.0054.

As for UGGACACUACAGCUUGCAUAGUAUUUAGUUA, the “pre-steady-state target cleavage rate” value was found to be 1.04 ± 0.063 in assay [1] (setting [3]) and 0.0643 ± 0.0081 in assay [1] (setting [4]).

AGGACCUACAUGCUUGCAUAGUAUUUAGUUA: the “pre-steady-state target cleavage rate” value stood at 0.767 ± 0.056 in assay [1] (setting [3]) and 0.0684 ± 0.013 in assay [1] (setting [4]).

On to AGGACGAUCAGCUUGCAUAGUAUUUAGAAA, for which the “pre-steady-state target cleavage rate” value in assay [1] (setting [3]) was found to be 0.384 ± 0.061; in assay [1] (setting [4]), 0.0104 ± 0.0037.

Regarding AGGACCUACACCUUGCAUAGUAUUAAGUUA, the “pre-steady-state target cleavage rate” value in assay [1] (setting [3]) came out at 0.627 ± 0.054; in assay [1] (setting [4]), 0.0334 ± 0.0069.

Take AGGACGAACAGCUUGCAUAGUAUUUAGUUA: the “pre-steady-state target cleavage rate” value stood at 1.27 ± 0.045 in assay [1] (setting [3]) and 0.084 ± 0.016 in assay [1] (setting [4]).

Consider UGGACCUACAGCUUGCAUAGUAUUUAGCUUA, for which the entries for the “pre-steady-state target cleavage rate” value in assay [1] (setting [3]) and in assay [1] (setting [4]) were 0.316 ± 0.023 and 0.0288 ± 0.0059, respectively.

With UGGACCUAGCAGCUUGCAUAGUAUUUAGUUA, the results for the “pre-steady-state target cleavage rate” value in assay [1] (setting [3]) and in assay [1] (setting [4]) were 1.59 ± 0.13 and 0.0734 ± 0.014, respectively.

UCCACCUACAGCUUGCUUAGUAUAUAGUUA: the “pre-steady-state target cleavage rate” value is 0.357 ± 0.027 in assay [1] (setting [3]) and 0.0111 ± 0.0025 in assay [1] (setting [4]).

On to UGGAGGAACAGCUUGCAUAGUAUUUAGAAA, for which the entries for the “pre-steady-state target cleavage rate” value in assay [1] (setting [3]) and in assay [1] (setting [4]) were 0.364 ± 0.037 and 0.00934 ± 0.004, respectively.

Consider UCGACGAACAGCUUGCAUAGUAUUUAGUUA, for which the “pre-steady-state target cleavage rate” value in assay [1] (setting [3]) amounted to 1.38 ± 0.049; in assay [1] (setting [4]) it was 0.0836 ± 0.015.

Take UGAACCUACAGCUUGCAUAGUAUUUAGUUA: the “pre-steady-state target cleavage rate” value in assay [1] (setting [3]) stood at 1.63 ± 0.068; in assay [1] (setting [4]), 0.0751 ± 0.015.

ACGACCUUCAGCUUGCAUAGUAUUUAGUUA: the “pre-steady-state target cleavage rate” value in assay [1] (setting [3]) turned out to be 1.45 ± 0.042; in assay [1] (setting [4]), 0.0921 ± 0.015.

Turning to AGGACCUACAGCUUGCAUAGUAUUUAAUUA, the “pre-steady-state target cleavage rate” value in assay [1] (setting [3]) is 0.357 ± 0.033; in assay [1] (setting [4]) it was 0.0325 ± 0.0055.

AGGACCUUACAGCUUGCAUAGUAUUUAGUUA: the “pre-steady-state target cleavage rate” value stood at 1.33 ± 0.06 in assay [1] (setting [3]) and 0.0925 ± 0.016 in assay [1] (setting [4]).

In the case of UCGUCCUUCAGCUUGCAUAGUAUUUAGUUA, the “pre-steady-state target cleavage rate” value was 1.41 ± 0.038 in assay [1] (setting [3]) and 0.0596 ± 0.01 in assay [1] (setting [4]).

Take UCCUGGAUCAGCUUGGAUAGUAUUUAGUUA: the “pre-steady-state target cleavage rate” value in assay [1] (setting [3]) was determined as 0.775 ± 0.064; in assay [1] (setting [4]), 0.0476 ± 0.0092.

As for UGGACCUUCAGCUUGGAUAGUAUUUAGUUA, the “pre-steady-state target cleavage rate” value in assay [1] (setting [3]) came to 1.59 ± 0.068; in assay [1] (setting [4]), 0.0597 ± 0.011.

As for AGAGACCUACAGCUUGCAUAGUAUUUAGUUA, the “pre-steady-state target cleavage rate” value worked out at 1.46 ± 0.067 in assay [1] (setting [3]) and 0.091 ± 0.017 in assay [1] (setting [4]).

For AGGACGAACAGCUUGCAUAGUAUUUACAAA, the “pre-steady-state target cleavage rate” value was 0.245 ± 0.037 in assay [1] (setting [3]) and 0.00641 ± 0.0027 in assay [1] (setting [4]).

Regarding UGGACCUUCAGCUUGCAUAGUAUUUAGUAA, the “pre-steady-state target cleavage rate” value in assay [1] (setting [3]) came out at 1.07 ± 0.064; in assay [1] (setting [4]), 0.0524 ± 0.011.

UCCUGGAUGUCGAACGUUAGUUUUAGUUA: the “pre-steady-state target cleavage rate” value is 0.000189 ± 0.021 in assay [1] (setting [3]) and 0.000174 ± 0.022 in assay [1] (setting [4]).

For the sequence UCCUGCAUGAGCUUGCAUAGUAUUUAGUUA, the “pre-steady-state target cleavage rate” value in assay [1] (setting [3]) was 0.92 ± 0.051; in assay [1] (setting [4]) it was 0.0506 ± 0.01.

For AGGACCUACAGCUUUGCAUAGUAUUUAGUUA, the “pre-steady-state target cleavage rate” value came to 1.2 ± 0.066 in assay [1] (setting [3]) and 0.0552 ± 0.012 in assay [1] (setting [4]).

In the case of UGGACCUACAGCUUGCAUACAAUUUACAAA, the “pre-steady-state target cleavage rate” value in assay [1] (setting [3]) came to 0.000439 ± 0.011; in assay [1] (setting [4]), 0.000229 ± 0.013.

GGAGACCUAUGAAUACAACCUACCACCUCA: the “pre-steady-state target cleavage rate” value in assay [2] is 0.00254 ± 0.0031.

For CCUCUGGAUACUAUUACAACCUACUACCUCA, the “pre-steady-state target cleavage rate” value in assay [2] is 1.82 ± 0.12.

On to GGACUGGAUACUAUAGAACCUACUAGCUCA, for which, in assay [2], the “pre-steady-state target cleavage rate” value worked out at 0.000656 ± 0.0067.

Turning to GGAGACCUAACUAUAGUUCCUACUACCUCA, in assay [2], the “pre-steady-state target cleavage rate” value was determined as 0.000299 ± 0.013.

Regarding GGAGUGGAUACUAUACAACCUACACCUCA, the “pre-steady-state target cleavage rate” value in assay [2] was 0.000502 ± 0.0064.

In the case of GGAGACCUAUCUAUACAACCAAGUACCUCA, the “pre-steady-state target cleavage rate” value in assay [2] was 0.00191 ± 0.0034.

As to GGAGACCUAUGUAAACAACCUACUACCACA, in assay [2], the “pre-steady-state target cleavage rate” value was found to be 0.00107 ± 0.0074.

In the case of GCUCUGGAUACUAUACAACCUACUACUCUCA, the “pre-steady-state target cleavage rate” value in assay [2] was 2.07 ± 0.12.

CCUCUGGAUACUAUGCAACCUACUACCUCA: the “pre-steady-state target cleavage rate” value in assay [2] was determined as 2.09 ± 0.13.

Regarding CCCUCUGGAUACUAUACAACCUACUACCUCA, the “pre-steady-state target cleavage rate” value in assay [2] turned out to be 2.25 ± 0.12.

Consider GGUCAGGAUACUAUUCAACCUACUACCUCA, for which the “pre-steady-state target cleavage rate” value in assay [2] was determined as 1.79 ± 0.1.

Turning to GGUCUGGUUACUAUACAACCUACUACCACA, in assay [2], the “pre-steady-state target cleavage rate” value was 0.747 ± 0.068.

Regarding GGAGACCUAUGAAUACUUCCUACUACCUCA, in assay [2], the “pre-steady-state target cleavage rate” value came out at 0.000398 ± 0.0059.

For the sequence GGAGACCUAUGAACUACAACCUACUACCUCA, the “pre-steady-state target cleavage rate” value in assay [2] was 0.000233 ± 0.016.

As to GGAGUGGUUACUAUACAACGUACUACCUCA, in assay [2], the “pre-steady-state target cleavage rate” value worked out at 0.386 ± 0.027.

GCUCUGGAUACCUAUACAACCUACUACCUCA: the “pre-steady-state target cleavage rate” value in assay [2] turned out to be 1.06 ± 0.08.

For the sequence GGAGACCUUACUAUACAACCUACUCCUCA, the “pre-steady-state target cleavage rate” value in assay [2] is 0.000829 ± 0.0063.

On to GGAGACCUAUGUAUUCAACCUACAACCUCA, for which the “pre-steady-state target cleavage rate” value in assay [2] was found to be 0.000279 ± 0.0089.

As for GGACUGGAUACUAUACAACCUACUAGGACA, the “pre-steady-state target cleavage rate” value in assay [2] is 0.000378 ± 0.01.

Regarding GGAGACCUAUGAUUACAACCUACUACCUUCA, in assay [2], the “pre-steady-state target cleavage rate” value was found to be 0.000977 ± 0.004.

In the case of GGAGACCUAUGAUAUGUACCUACUACGAGA, the “pre-steady-state target cleavage rate” value in assay [2] came out at 0.000185 ± 0.039.

Take GCUCUCGAUACUUUACAACCUACUACCUCA: the “pre-steady-state target cleavage rate” value in assay [2] came to 1.69 ± 0.11.

For GGAGACCUAUGAUUACAUCCUACUACCACA, the “pre-steady-state target cleavage rate” value in assay [2] was found to be 0.00154 ± 0.0047.

For CCUCUCGAUACUAAACAACCUACUACCUCA, the “pre-steady-state target cleavage rate” value in assay [2] worked out at 2.13 ± 0.14.

Take CCUCGGGAUACUAUACAACCUACUACCUCA: in assay [2], the “pre-steady-state target cleavage rate” value turned out to be 2.3 ± 0.16.
